Assay results taken from article PMC13241479.
No constants are given. Whether binding was seen depends on the method and setting. Binding seen in cells or lysates may run through a third protein. These calls come from enrichment with a bait or labelling near it, and not all partners need be listed. Sequences can lack the tags named with a protein.

Chains of the proteins cited; added tags and fusions are not shown. Lines headed by an entry give the natural chain unless they say otherwise; changes in a name come on top. Residues count along the entry.
UniProt P12763, residues 19-359: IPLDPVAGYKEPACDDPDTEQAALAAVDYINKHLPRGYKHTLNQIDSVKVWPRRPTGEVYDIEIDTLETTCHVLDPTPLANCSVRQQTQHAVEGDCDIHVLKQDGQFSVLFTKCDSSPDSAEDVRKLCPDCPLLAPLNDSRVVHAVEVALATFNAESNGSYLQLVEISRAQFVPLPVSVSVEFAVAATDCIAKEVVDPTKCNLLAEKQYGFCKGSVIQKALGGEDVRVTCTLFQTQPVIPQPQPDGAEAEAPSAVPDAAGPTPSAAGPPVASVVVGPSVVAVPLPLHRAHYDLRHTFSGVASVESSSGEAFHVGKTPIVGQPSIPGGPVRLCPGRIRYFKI
UniProt Q3SX14: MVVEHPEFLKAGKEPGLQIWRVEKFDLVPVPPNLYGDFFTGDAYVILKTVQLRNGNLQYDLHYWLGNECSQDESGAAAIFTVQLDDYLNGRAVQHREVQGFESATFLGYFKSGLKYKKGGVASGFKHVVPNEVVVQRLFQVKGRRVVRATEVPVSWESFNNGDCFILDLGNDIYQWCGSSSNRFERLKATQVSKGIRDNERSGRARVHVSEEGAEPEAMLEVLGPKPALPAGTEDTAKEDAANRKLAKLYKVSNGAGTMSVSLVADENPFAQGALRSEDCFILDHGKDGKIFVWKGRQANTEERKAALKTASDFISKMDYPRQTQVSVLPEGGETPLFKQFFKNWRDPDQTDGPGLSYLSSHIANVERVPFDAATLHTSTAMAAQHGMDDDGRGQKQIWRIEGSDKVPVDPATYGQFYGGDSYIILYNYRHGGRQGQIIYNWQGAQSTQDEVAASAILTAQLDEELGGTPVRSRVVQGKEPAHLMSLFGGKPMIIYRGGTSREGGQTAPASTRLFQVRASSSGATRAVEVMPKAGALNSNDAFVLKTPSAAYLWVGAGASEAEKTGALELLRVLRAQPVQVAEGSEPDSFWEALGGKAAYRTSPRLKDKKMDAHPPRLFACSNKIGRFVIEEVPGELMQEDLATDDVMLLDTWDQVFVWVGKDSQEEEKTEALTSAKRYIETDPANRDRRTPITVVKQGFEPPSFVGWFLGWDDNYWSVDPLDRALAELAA
UniProt Q3T0E5: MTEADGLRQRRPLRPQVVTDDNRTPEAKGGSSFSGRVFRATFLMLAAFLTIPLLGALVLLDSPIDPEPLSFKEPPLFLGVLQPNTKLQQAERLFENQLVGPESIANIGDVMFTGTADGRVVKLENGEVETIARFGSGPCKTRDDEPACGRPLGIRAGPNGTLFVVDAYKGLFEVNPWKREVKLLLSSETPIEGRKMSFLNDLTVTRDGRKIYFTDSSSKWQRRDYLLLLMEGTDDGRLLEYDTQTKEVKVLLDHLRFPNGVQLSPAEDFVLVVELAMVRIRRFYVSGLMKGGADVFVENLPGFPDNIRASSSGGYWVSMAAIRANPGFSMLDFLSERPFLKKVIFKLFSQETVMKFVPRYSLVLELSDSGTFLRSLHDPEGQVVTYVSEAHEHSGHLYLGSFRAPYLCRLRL
UniProt Q3MHN2, residues 22-548: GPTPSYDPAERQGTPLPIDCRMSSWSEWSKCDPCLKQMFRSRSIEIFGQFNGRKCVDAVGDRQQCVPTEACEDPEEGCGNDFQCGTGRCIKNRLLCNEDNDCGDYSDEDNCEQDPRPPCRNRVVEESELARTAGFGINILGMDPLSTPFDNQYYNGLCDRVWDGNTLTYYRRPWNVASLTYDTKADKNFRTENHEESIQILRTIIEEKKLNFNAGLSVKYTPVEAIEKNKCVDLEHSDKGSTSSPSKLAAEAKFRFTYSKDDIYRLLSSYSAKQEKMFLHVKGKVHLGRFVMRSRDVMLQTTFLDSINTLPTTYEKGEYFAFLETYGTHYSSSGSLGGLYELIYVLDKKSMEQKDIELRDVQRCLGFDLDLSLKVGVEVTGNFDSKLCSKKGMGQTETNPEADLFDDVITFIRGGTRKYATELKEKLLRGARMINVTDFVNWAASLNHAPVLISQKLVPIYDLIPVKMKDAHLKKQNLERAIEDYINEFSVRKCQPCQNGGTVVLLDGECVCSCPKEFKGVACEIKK

What follows are substances tested against T1, His-ALFA-SAA1-N terminus (human SAA1 19-94 aa) (human) (UniProt P0DJI8) (assay: affinity purification with mass spectrometry; ALFA-SAA1 (8 μM, urea-denatured stock) added to 50% bovine plasma in PBS, 16 h at 4°C; cleared at 20,000g; ALFA-nanobody beads 1 h at 4°C; washed four times with PBS; LC-MS/MS; only the target purified).
T1 sequence: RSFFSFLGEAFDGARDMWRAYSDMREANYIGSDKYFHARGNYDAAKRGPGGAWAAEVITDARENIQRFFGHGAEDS

binding, binds:
AHSG (bovine plasma) (from UniProt P12763 19-359), SERPIND1 (bovine plasma), SERPINA10 (bovine plasma), COL6A3 (bovine plasma), VTN (bovine plasma), COL18A1 (bovine plasma), APOB (bovine plasma), GSN (bovine plasma) (from UniProt Q3SX14 1-731), APMAP (bovine plasma) (from UniProt Q3T0E5), clusterin (bovine plasma), C9 (bovine plasma) (from UniProt Q3MHN2 22-548)
